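Viability assay of Plasmodium falciparum sporozoites; the read-out is not stated. The concentration is filed as 10 mM, unlikely as a test dose, so the dose is not known. The record gives no direction; compounds that gave an IC50 in retests scored well above the rest, so higher reads as lower viability. Strong results were mostly tested again. About 34,000 compounds were tested under these conditions; 0.84% (about 280) showed 50% or more at least once.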

Each number is a percent effect as filed. The controls that fix the scale are not given in the record; negative values are as filed. This is an unselected part of the compounds tested. Two or more numbers in one place are separate tests of the same structure; such repeats can differ widely.

Result for Cc1nc(C)c(C(=O)N2CCc3nnc(C4CCCCN4C)n3CC2)o1 (stereo not given) was 8.941%.
Result for CNCC(=O)Nc1ccc(-c2cnc(NCCS(C)(=O)=O)nc2)cc1 was 0.08467%.
Result for O=C(CC1CCCCC1)NC1CCCc2nc(N3CCOCC3)ncc21 (stereo not given) was 10.21%.
Result for [H][C@]12CC[C@@]([H])(C1)N(C(=O)COc1cccc(NC(=O)CC)c1)C2 was 4.297%.
Result for CS(=O)(=O)N1CCC(NC(=O)COc2ccc(Cl)c(Cl)c2)CC1 was 3.2%.
Result for COc1ccc(Cl)cc1CC(=O)N1CCN(CCO)CC1 was 2.133%.
Result for CCCn1ncc2c(C(=O)Nc3cnn(CC)c3C)cc(C3CC3)nc21 was 4.476%.
Result for CC(O)CN1CCN(C(=O)Cc2ccccc2Cl)CC1 (stereo not given) was 4.636%.
Result for CCc1nnsc1C(=O)N1CCCN(Cc2ccc(C)cc2)CC1 was -6.243%.
Result for O=C(O)C(F)(F)F.O=C(O)C(F)(F)F.[H][C@@]12CCN(C(=O)c3cnn(C)c3)[C@@]1([H])CCN2Cc1ccncc1 was -0.434%.
Result for CC(C)NC(=O)c1csc(NC2CC2)n1 was -5.904%.
Result for Cc1noc(-c2cccnc2N2CCN(c3cnn(C)c3)CC2)n1 was -5.257%.
Result for CCN1CCC(NC(=O)CN2CCCCC2Cn2cc(C)cn2)CC1 (stereo not given) was -14.75% & -11.72% & -0.4773%.
Result for [H][C@]12CC[C@]([H])(CN(Cc3ccccc3C#N)C1)N(CC1CC1)C2=O was -6.235%.
Result for Cc1nn(C)c(Cl)c1C1CCCN1C(=O)c1ccncc1 (stereo not given) was 9.212%.
Result for CC(=O)N1CCc2ccc(NC(=O)c3cn(C)nn3)cc2C1 was -2.775%.
Result for CN(C)c1ccc(C2CCN(c3cnccn3)CC2)nc1 was 2.283%.
Result for Brc1cccc(-c2nnc(CNCCn3cccn3)o2)c1 was 2.399%.
Result for Cc1ccc(C(=O)NCc2ccnc(N(C)C)c2)c(C)c1 was -4.449%.
Result for Cc1ccccc1CCC(=O)N1CCCC(c2cc(C(N)=O)[nH]n2)C1 (stereo not given) was 13.01%.
Result for CC(C)OCCCN(Cc1ccncc1)Cc1cccc(F)c1F.Cl was 12.08%.
Result for Cc1n[nH]cc1CNC1(Cc2ccc(Br)cc2)CCCCC1 was -4.994%.
Result for CC(=O)Nc1ncc(S(=O)(=O)Nc2ccc(F)cc2)s1 was 0.4386%.
Result for O=C(NCCc1cc(=O)[nH]cn1)c1[nH]nc2c1CCCC2 was -32.53% & -30.74%.
Result for COc1ccccc1CC(=O)NS(=O)(=O)c1ccc(NC(C)=O)cc1 was 9.785%.
Result for Fc1ccc(CN2CCCC2Cn2cccn2)c2ncccc12 (stereo not given) was -19.63%.
Result for CCS(=O)(=O)N1CCC(NC(=O)c2cc3ccccc3cc2O)CC1 was 3.093%.
Result for Cl.c1nc(N2CCOCC2)ncc1-c1cncn1CCCN1CCCCC1 was 7.473%.
Result for COC(=O)CSCc1noc(-c2ccc(C)cc2)n1 was 97.51% & 95.63%.
Result for CC(=O)N1CCN([C@@H]2CC[C@@H](NC(=O)c3cncc(C)c3)[C@H]2O)CC1 was 8.175%.
Result for CCS(=O)(=O)N1C[C@@H](c2cc(O)nc(C)n2)[C@H](c2ccccc2F)C1 was 8.613%.
Result for Cc1cc(NC2CC3(CCN(Cc4csc(C)n4)C3)C2)ncn1 (stereo not given) was 3.614%.
Result for CCC(c1nc(CC(C)C)nn1-c1ccccn1)n1cccn1 (stereo not given) was -14.88% & 0% & -26.69%.
Result for CN(C)C(=O)CNC(=O)c1cc2ccccc2nc1N1CCCC1 was 5.606%.
Result for COc1ccc(C(=O)N2CC(=O)N(Cc3cccs3)CC(O)C2)cc1 (stereo not given) was -35.69%.
Result for Cn1cc(C2CCCN2Cc2csc(-c3ccccc3)n2)cn1 (stereo not given) was 13.77%.
Result for CC1C(=O)NCCN1CCOc1ccc(C#N)cc1 (stereo not given) was 6.267%.
Result for Cc1cc(CN2CCN(C(=O)NCc3csc(C)n3)CC2)on1 was -16.07%.

Once more, the final 5:

SMILES,effect
CN(C)C(=O)CNC(=O)c1cc2ccccc2nc1N1CCCC1,5.606
COc1ccc(C(=O)N2CC(=O)N(Cc3cccs3)CC(O)C2)cc1 (stereo not given),-35.69
Cn1cc(C2CCCN2Cc2csc(-c3ccccc3)n2)cn1 (stereo not given),13.77
CC1C(=O)NCCN1CCOc1ccc(C#N)cc1 (stereo not given),6.267
Cc1cc(CN2CCN(C(=O)NCc3csc(C)n3)CC2)on1,-16.07

From ChEMBL document CHEMBL3988442, “University of Dundee, Small-Polar-MMV Screening Library” (2021).